Structures can show the parent of a compound that is named as a salt. The list shows a part of the results. Single values are uncertain here, since repeats match poorly.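 JEG3 cells stably carry tetracycline-induced wild-type human LRH-1, a heavily sumoylated nuclear receptor. APOC3 and MUC1 are SUMO-sensitive transcripts, raised by SUMO-less LRH-1 or UBC9 knockdown, measured by RT-qPCR against TBP and DMSO controls. A robust Z-score above +2 or below -2 marked a primary hit before toxicity and TBP filtering.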

For this experiment, the system named is JEG3 expressing hLRH-1. Kind of experiment: MUC1 transcript change (ddCt vs TBP and DMSO), Z-score over library; higher = higher MUC1 expression. Conditions: 10 µM; time (hr): 24.
Turning to `NC[C@H]1O[C@H](O[C@H]2[C@H](O[C@@H]3O[C@H](CO)[C@@H](O)[C@H]3O)[C@@H](O)[C@H](N)C[C@@H]2N)[C@H](N)[C@@H](O)[C@@H]1O` [ribostamycin sulfate], the “MUC1 transcript change (Z-score)” value was determined as 0.103.
With `O=C(O)c1cc(=O)c2ccccc2o1` [chromocarb], the “MUC1 transcript change (Z-score)” value stood at 0.0625.
Take `COc1cc(/C=C/C(N)=O)cc(OC)c1OC` [cintriamide]: the “MUC1 transcript change (Z-score)” value was 0.184.
As for `NCCS(=O)(=O)O` [taurine], the “MUC1 transcript change (Z-score)” value was 1.19.
On to `CC(=O)c1ccc2c(c1)N(CCCN1CCC(CCO)CC1)c1ccccc1S2` [piperacetazine], for which the “MUC1 transcript change (Z-score)” value is -0.178.
The value for `Cc1cccc(C)c1NC(=O)C1CCCCN1C` (centres undefined) [mepivacaine hydrochloride] was 0.5; that for `COc1cc(C(=O)NCCCCCC(=O)O)cc(OC)c1OC` [capobenic acid] was 0.309; that for `Oc1c(I)cc(I)c2cccnc12` [iodoquinol] was 0.722.
`CCCc1nn(C)c2c(O)nc(-c3cc(S(=O)(=O)N4CCN(C)CC4)ccc3OCC)nc12` [sildenafil]: the “MUC1 transcript change (Z-score)” value is 0.459.
Under `CCCCCC(C)N` (centres undefined) [tuaminoheptane sulfate] stands 0.944; under `O=C(NCCCN1CCOCC1)c1ccc(Cl)cc1` [eprobemide], 0.263.
On to `OC[C@H]1O[C@@H](n2cnc3c(O)ncnc32)[C@H](O)[C@@H]1O` [inosine], for which the “MUC1 transcript change (Z-score)” value is -1.45.
With `Cn1cnc2c1c(=O)[nH]c(=O)n2C` [Theobromine], the “MUC1 transcript change (Z-score)” value turned out to be 0.706.
Turning to `CS(=O)(=O)c1ccc([C@@H](O)[C@@H](CO)NC(=O)C(Cl)Cl)cc1` [thiamphenicol], the “MUC1 transcript change (Z-score)” value was 0.142.
As for `NC[C@@H]1CC[C@@H](N)[C@@H](O[C@H]2[C@H](O)[C@@H](O[C@H]3O[C@H](CO)[C@@H](O)[C@H](N)[C@H]3O)[C@H](N)C[C@@H]2N)O1` [dibekacin], the “MUC1 transcript change (Z-score)” value stood at 0.222.
Take `O=S(=O)(O)CCS` [mesna]: the “MUC1 transcript change (Z-score)” value came out at 0.0903.
Under `CC(C)NCC(O)COc1ccc(COCCOC(C)C)cc1` (centres undefined) [bisoprolol fumarate] stands 0.999.
The value for `CCOc1cc(NC(C)=O)ccc1C(=O)OC` [ethopabate] was 1.09.
The value for `Nc1nc(N)nc(-c2cc(Cl)ccc2Cl)n1` [irsogladine maleate] was 0.0142; that for `Nc1nc(Cl)nc2c1ncn2[C@@H]1O[C@H](CO)[C@@H](O)[C@@H]1F` [clofarabine] was -3.06; that for `CC(C)(Oc1ccc(C(=O)c2ccc(Cl)cc2)cc1)C(=O)O` [fenofibric acid] was 1.18.
On to `Cc1c(OCC(F)(F)F)ccnc1C[S@@](=O)c1nc2ccccc2[nH]1` [dexlansoprazole], for which the “MUC1 transcript change (Z-score)” value is -0.0323.
Turning to `C=CCOC(Cn1ccnc1)c1ccc(Cl)cc1Cl` (centres undefined) [enilconazole], the “MUC1 transcript change (Z-score)” value is 0.517.
`OC(c1cc(C(F)(F)F)nc2c(C(F)(F)F)cccc12)C1CCCCN1` (centres undefined) [mefloquine]: the “MUC1 transcript change (Z-score)” value is -0.148.
As to `CSCC[C@H](NC(=O)[C@H](Cc1c[nH]c2ccccc12)NC(=O)[C@H](C)NC(=O)OC(C)(C)C)C(=O)N[C@@H](CC(=O)O)C(=O)N[C@@H](Cc1ccccc1)C(N)=O` [pentagastrin], the “MUC1 transcript change (Z-score)” value worked out at 0.231.
The value for `CC(C)(C)NC[C@H](O)COc1nsnc1N1CCOCC1` [timolol maleate] was 0.34.
On to `C[C@]12CCC(=O)C=C1CC[C@@H]1[C@@H]2[C@@H](O)C[C@@]2(C)[C@H]1CC[C@]2(O)C(=O)COC(=O)CCC(=O)O` [hydrocortisone hemisuccinate], for which the “MUC1 transcript change (Z-score)” value was -0.169.
Under `CN1C(CC(=O)c2ccccc2)CCCC1CC(O)c1ccccc1` (centres undefined) [lobeline hydrochloride] stands 0.239.
Regarding `CC(C)[C@H](N)C(=O)OCCOCn1cnc2c(O)nc(N)nc21` [valacyclovir hydrochloride], the “MUC1 transcript change (Z-score)” value turned out to be 0.565.
For `CCOC(=O)OC(C)OC(=O)[C@@H]1N2C(=O)[C@@H](NC(=O)[C@H](N)c3ccccc3)[C@H]2SC1(C)C` (some centres undefined) [bacampicillin hydrochloride], the “MUC1 transcript change (Z-score)” value turned out to be 0.0913.
The value for `CC(=O)N[C@@H](CCC(N)=O)C(=O)O` [aceglutamide] was -0.245; that for `CCC(C)[C@H]1O[C@]2(CC[C@@H]1C)C[C@@H]1C[C@@H](C/C=C(\C)[C@@H](OC3C[C@H](OC)C(O[C@H]4C[C@H](OC)[C@@H](O)[C@H](C)O4)[C@H](C)O3)[C@@H](C)/C=C/C=C3\CO[C@@H]4[C@H](O)C(C)=C[C@@H](C(=O)O1)[C@]34O)O2` (some centres undefined) [ivermectin] was 0.413.
The value for `Nc1ncn([C@@H]2O[C@H](CO)[C@@H](O)[C@H]2O)c(=O)n1` [5-azacytidine] was -1.75; that for `CC1CCc2c(N3CCC(O)CC3)c(F)cc3c(=O)c(C(=O)O)cn1c23` (centres undefined) [nadifloxacin] was -0.145; that for `O=C(O)CCCCC(=O)O` [adipic acid] was 0.643.
The value for `CCCNC(C)C(=O)Nc1ccccc1C` (centres undefined) [prilocaine hydrochloride] was 0.913; that for `COc1ccc(CN(CCN(C)C)c2ccccn2)cc1` [Pyrilamine maleate] was 0.0631.
On to `Cc1c(C)c2c(c(C)c1O)CCC(C)(CCCC(C)CCCC(C)CCCC(C)C)O2` (stereo not drawn) [alpha-tochopherol], for which the “MUC1 transcript change (Z-score)” value amounted to 0.249.
For the compound `CN1C(C(=O)Nc2ccccn2)=C(O)c2sc(Cl)cc2S1(=O)=O` [lornoxicam], the “MUC1 transcript change (Z-score)” value was found to be 0.456.
Under `C=CCc1ccc(O)c(OC)c1` [eugenol] stands 0.349; under `CCN1C(=O)NC(c2ccccc2)C1=O` (centres undefined) [ethotoin], 0.271; under `CNCCC=C1c2ccccc2CCc2ccccc21` [Nortriptyline hydrochloride], 0.637.
Turning to `CCn1cc(C(=O)O)c(=O)c2ccc(C)nc21` [nalidixic acid], the “MUC1 transcript change (Z-score)” value turned out to be 0.576.
The value for `CCCCCCCCCCCCCCCC[N+](C)(C)CCN(Cc1ccc(OC)cc1)c1ncccn1` [thonzonium bromide] was 0.0367.
